Some results were stated once for a whole list of compounds, not compound by compound.
Test system: several cancer cell lines
Experiment: Cytotoxic effects against several cancer cell lines in vitro
Format: cell-based

Row | SMILES | Cytotoxic effects against several cancer cell lines (in words)
1 | CC(C)NCCCOc1cc(O)c2c(c1)C(=O)c1ccccc1C2=O [Compound 6, 1-Hydroxy-3-[3-(isopropylamino)-propoxy]-9,10-anthraquinone] | enhanced cytotoxic effects
2 | CC(C)(C)NCCCOc1cc(O)c2c(c1)C(=O)c1ccccc1C2=O [Compound 7, 3-[3-(tert-Butylamino)-propoxy]-1-hydroxy-9,10-anthraquinone] | enhanced cytotoxic effects
3 | CCCCNCCCOc1cc(O)c2c(c1)C(=O)c1ccccc1C2=O [Compound 8, 3-[3-(Butylamino)-propoxy]-1-hydroxy-9,10-anthraquinone] | enhanced cytotoxic effects
4 | CCN(CC)CCCOc1ccc2c(c1)C(=O)c1ccccc1C2=O [Compound 9, 3-[3-(Diethylamino)-propoxy]-9,10-anthraquinone] | enhanced cytotoxic effects
5 | CCCNCCCOc1ccc2c(c1)C(=O)c1ccccc1C2=O [Compound 10, 3-[3-(Propylamino)-propoxy]-9,10-anthraquinone] | enhanced cytotoxic effects
6 | CC(C)NCCCOc1ccc2c(c1)C(=O)c1ccccc1C2=O [Compound 11, 3-[3-(Isopropylamino)-propoxy]-9,10-anthraquinone] | enhanced cytotoxic effects
7 | CCCCNCCCOc1ccc2c(c1)C(=O)c1ccccc1C2=O [Compound 12, 3-[3-(Butylamino)-propoxy]-9,10-anthraquinone] | enhanced cytotoxic effects
8 | CC(C)CNCCCOc1ccc2c(c1)C(=O)c1ccccc1C2=O [Compound 13, 3-[3-(Isobutylamino)-propoxy]-9,10-anthraquinone] | enhanced cytotoxic effects
9 | O=C1c2ccccc2C(=O)c2cc(OCCCNC3CCCCC3)ccc21 [Compound 15, 3-[3-(Cyclohexylamino)-propoxy]-9,10-anthraquinone] | enhanced cytotoxic effects
10 | CN1CCN(CCCOc2ccc3c(c2)C(=O)c2ccccc2C3=O)CC1 [Compound 16] | enhanced cytotoxic effects
